Data from US7767693B2, “Hsp90 family protein inhibitors” (Kyowa Hakko Kirin Co., Ltd., priority 2003, dated 2010).
Some results were stated once for a whole list of compounds, not compound by compound.

Molecular target: T1, Human N-terminal recombinant Hsp90 protein (region of amino acids 9 to 236) (Homo sapiens, UniProt P07900)
T1 construct: region of amino acids 9 to 236; made in house
Test: Hsp90 Protein Binding Assay
Details: at concentrations below 10 μmol/L; competition with biotinylated Radicicol 0.1 μmol/L, immobilized Hsp90, time-resolved fluorescence

Row | SMILES | inhibited the binding of biotinylated Radicicol to the Hsp90 protein
1 | CCc1c(O)cc(O)c(C(=O)c2ccoc2)c1CC(=O)N(CCO)CCO [Compound 152, 2-[2-ethyl-6-(3-furylcarbonyl)-3,5-dihydroxy-phenyl]-N,N-bis(2-hydroxyethyl)acetamide] | more than 30%
2 | CCc1c(O)cc(O)c(C(=O)c2ccoc2)c1CC(=O)N(CCO)CCOC [Compound 153, 2-[2-ethyl-6-(3-furylcarbonyl)-3,5-dihydroxy-phenyl]-N-(2-hydroxyethyl)-N-(2-methoxyethyl)acetamide] | more than 30%
3 | CCc1c(O)cc(O)c(C(=O)c2ccsc2)c1CC(=O)N1CCN(c2ccccc2C#N)C(=O)C1 [Compound 154, 4-{2-[2-ethyl-3,5-dihydroxy-6-(3-thienyl-carbonyl)phenyl]acetyl}-1-(2-cyanophenyl)piperazin-2-one] | more than 30%
4 | CCc1c(O)cc(O)c(C(=O)c2ccsc2)c1CC(=O)N1CCC(CO)CC1 [Compound 155, 2-[2-ethyl-3,5-dihydroxy-6-(3-thienyl-carbonyl)phenyl]-1-[4-(hydroxymethyl)piperidino]ethanone] | more than 30%
5 | CCc1c(O)cc(O)c(C(=O)c2ccoc2)c1CC(=O)N(CCOC)CCOC [Compound 156, 2-[2-ethyl-6-(3-furylcarbonyl)-3,5-dihydroxy-phenyl]-N,N-bis(2-methoxyethyl)acetamide] | more than 30%
6 | CCc1c(O)cc(O)c(-c2ccc3c(c2)OCO3)c1CC(=O)N(CCO)CCO [Compound 157, 2-[2-(1,3-benzodioxol-5-yl)-6-ethyl-3,5-dihydroxyphenyl]-N,N-bis(2-hydroxyethyl)acetamide] | more than 30%
